Data as given in PubChem BioAssay AID248 (DTP/NCI, 2004).
The list is a part of this screen's results and no random one: it gathers tests that were run many times, whatever their T/C, doses with no T/C, and many T/C values between a quarter and a half above the control. Other doses and runs of a compound stand elsewhere. T/C gives the treated animals as a percentage of the vehicle group. Some doses have a count of surviving animals in place of a T/C: the source files T/C as zero there, which appears to mark a toxic dose or a test without result, not a measured value. Some survivor counts are full or nearly so, which does not show that the dose was tolerated: survival well below the control is almost never listed, so the zero probably covers shortened survival too. Counts of survivors are from the toxicity check (mostly the fifth day) where no day follows; animals may have died later. Schedules are NCI's codes, taken here to give the interval after Q, in days (D) or hours (H), and the number of doses after X. Some schedule codes hold Z or #, which are not explained here. Some doses were run more than once; the values are given in rising order. For survival time, this PubChem deposit counts one and a half times the control or more as active, and values a quarter to a half above the control carry no call in these data; other NCI protocols may use other cut-offs. Some T/C values are followed by the survivors on the day toxicity was checked, most often the fifth; where none is given, no animal had died by that day.

System: L1210 leukemia ip in BDF1 mice, survival T/C
Assay: NCI In Vivo Anticancer Drug Screen. Data for tumor model L1210 Leukemia (intraperitoneal) in B6D2F1 (BDF1) mice
Details: higher T/C = longer survival
[1] = T/C endpoint: mean survival time, dose: 500.0 mg/kg/injection, schedule: Q01DX005 (ip), vehicle: clinical formulation
[2] = T/C endpoint: mean survival time, dose: 1008.0 mg/kg/injection, schedule: Q01DX001 (ip), vehicle: carboxymethylcellulose (CMC)

CN(C)/N=N/c1nc[nH]c1C(N)=O
T/C (T/C endpoint: mean survival time, dose: 418.0 mg/kg/injection, schedule: Q01DX001 (ip), vehicle: carboxymethylcellulose (CMC)): 125 % of control [9 of 10 alive] | T/C (T/C endpoint: mean survival time, dose: 450.0 mg/kg/injection, schedule: Q01DX001 (ip), vehicle: carboxymethylcellulose (CMC), evaluated on day 5): 108 and 138 % of control | T/C (T/C endpoint: mean survival time, dose: 450.0 mg/kg/injection, schedule: Q01DX001 (ip), vehicle: carboxymethylcellulose (CMC), evaluated on day 45): 109 and 138 % of control | survivor count (T/C endpoint: mean survival time, dose: 450.0 mg/kg/injection, schedule: Q01DX Z (ip), vehicle: carboxymethylcellulose (CMC)): 0 of 6 | T/C (T/C endpoint: mean survival time, dose: 464.0 mg/kg/injection, schedule: Q04DX002 (ip), vehicle: carboxymethylcellulose (CMC)): 147, 148, 155, 164 % of control | T/C (T/C endpoint: mean survival time, dose: 500.0 mg/kg/injection, schedule: Q01DX001 (ip), vehicle: carboxymethylcellulose (CMC)): 138 % of control | T/C (T/C endpoint: mean survival time, dose: 500.0 mg/kg/injection, schedule: Q01DX001 (ip), vehicle: saline with Tween-80): 132 % of control [8 of 10 alive] | T/C [1]: 106 % of control | survivor count [1]: 0 of 6 and 1 of 6 | survivor count (T/C endpoint: mean survival time, dose: 512.0 mg/kg/injection, schedule: Q01DX005 (ip), vehicle: water): 9 of 9 | T/C (T/C endpoint: mean survival time, dose: 600.0 mg/kg/injection, schedule: Q01DX001 (ip), vehicle: carboxymethylcellulose (CMC)): 143 % of control | survivor count (T/C endpoint: mean survival time, dose: 600.0 mg/kg/injection, schedule: Q01DX001 (ip), vehicle: other): 5 of 10 | survivor count (T/C endpoint: mean survival time, dose: 600.0 mg/kg/injection, schedule: Q03DX Z (ip), vehicle: carboxymethylcellulose (CMC)): 0 of 6 | T/C (T/C endpoint: mean survival time, dose: 600.0 mg/kg/injection, schedule: Q07DX003 (ip), vehicle: other): 148 % of control | T/C (T/C endpoint: mean survival time, dose: 625.0 mg/kg/injection, schedule: Q01DX001 (ip), vehicle: carboxymethylcellulose (CMC)): 136 % of control | T/C (T/C endpoint: mean survival time, dose: 672.0 mg/kg/injection, schedule: Q01DX001 (ip), vehicle: carboxymethylcellulose (CMC), evaluated on day 5): 120 [8 of 9 alive] and 147 % of control | T/C (T/C endpoint: mean survival time, dose: 672.0 mg/kg/injection, schedule: Q01DX001 (ip), vehicle: carboxymethylcellulose (CMC), evaluated on day 45): 123, 124, 135 [7 of 10 alive], 147 % of control | survivor count (T/C endpoint: mean survival time, dose: 672.0 mg/kg/injection, schedule: Q01DX001 (ip), vehicle: carboxymethylcellulose (CMC)): 9 of 10 | T/C (T/C endpoint: mean survival time, dose: 700.0 mg/kg/injection, schedule: Q01DX001 (ip), vehicle: carboxymethylcellulose (CMC)): 139 % of control | survivor count (T/C endpoint: mean survival time, dose: 700.0 mg/kg/injection, schedule: Q07DX Z (ip), vehicle: carboxymethylcellulose (CMC)): 1 of 6 | survivor count (T/C endpoint: mean survival time, dose: 720.0 mg/kg/injection, schedule: Q01DX001 (ip), vehicle: carboxymethylcellulose (CMC)): 3 of 6 | survivor count (T/C endpoint: mean survival time, dose: 800.0 mg/kg/injection, schedule: Q01DX001 (ip), vehicle: carboxymethylcellulose (CMC)): 0 of 10 | T/C (T/C endpoint: mean survival time, dose: 800.0 mg/kg/injection, schedule: Q01DX001 (ip), vehicle: steroid suspending solution, evaluated on day 5): 127 % of control | T/C (T/C endpoint: mean survival time, dose: 800.0 mg/kg/injection, schedule: Q01DX001 (ip), vehicle: steroid suspending solution, evaluated on day 19): 127 % of control | survivor count (T/C endpoint: mean survival time, dose: 800.0 mg/kg/injection, schedule: Q04DX003 (ip), vehicle: Klucel (hydroxypropylcellulose) (HPC)): 1 of 6 | survivor count (T/C endpoint: mean survival time, dose: 900.0 mg/kg/injection, schedule: Q01DX001 (ip), vehicle: carboxymethylcellulose (CMC)): 5 of 10 | survivor count (T/C endpoint: mean survival time, dose: 900.0 mg/kg/injection, schedule: Q01DX001 (ip), vehicle: other): 4 of 10 | survivor count (T/C endpoint: mean survival time, dose: 928.0 mg/kg/injection, schedule: Q04DX002 (ip), vehicle: carboxymethylcellulose (CMC)): 1 of 3 | T/C (T/C endpoint: mean survival time, dose: 1000.0 mg/kg/injection, schedule: Q01DX001 (ip), vehicle: carboxymethylcellulose (CMC)): 138 % of control | T/C [2]: 134 [6 of 8 alive] and 165 % of control | survivor count [2]: 5 of 8 and 8 of 10 | survivor count (T/C endpoint: mean survival time, dose: 1080.0 mg/kg/injection, schedule: Q01DX001 (ip), vehicle: carboxymethylcellulose (CMC)): 2 of 6 | survivor count (T/C endpoint: mean survival time, dose: 1200.0 mg/kg/injection, schedule: Q03DX Z (ip), vehicle: carboxymethylcellulose (CMC)): 0 of 6 | survivor count (T/C endpoint: mean survival time, dose: 1350.0 mg/kg/injection, schedule: Q01DX001 (ip), vehicle: carboxymethylcellulose (CMC)): 3 of 10 | survivor count (T/C endpoint: mean survival time, dose: 1350.0 mg/kg/injection, schedule: Q01DX001 (ip), vehicle: other): 1 of 9 | survivor count (T/C endpoint: mean survival time, dose: 1400.0 mg/kg/injection, schedule: Q07DX Z (ip), vehicle: carboxymethylcellulose (CMC)): 0 of 6 | survivor count (T/C endpoint: mean survival time, dose: 1600.0 mg/kg/injection, schedule: Q01DX Z (oral), vehicle: carboxymethylcellulose (CMC)): 4 of 6 | survivor count (T/C endpoint: mean survival time, dose: 1620.0 mg/kg/injection, schedule: Q01DX001 (ip), vehicle: carboxymethylcellulose (CMC)): 1 of 6 | survivor count (T/C endpoint: mean survival time, dose: 2000.0 mg/kg/injection, schedule: Q01DX001 (ip), vehicle: carboxymethylcellulose (CMC)): 6 of 6 | T/C (T/C endpoint: median survival time, dose: 25.0 mg/kg/injection, schedule: Q01DX017 (ip), vehicle: steroid suspending solution): 131 % of control | T/C (T/C endpoint: median survival time, dose: 39.0 mg/kg/injection, schedule: Q01DX033 (ip), vehicle: other): 125 % of control
